Results from the supplement of paper PMC5949888.
Most values lie at the floor of the assay. Slopes are relative: functional sequences can read slightly below zero.

tested on: Saccharomyces cerevisiae PS128 hsf1 delta, HSF1(1-493) fusion; test: growth estimate (transactivation domain function in HSF1 fusion, heat-shock survival) (a.u. (slope of normalised read count over time)); higher = stronger growth at 37°C, i.e. more transactivation activity; details: library: random library
Procedure: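 Random 60-nt DNA library encoding peptides of up to 20 aa, fused to the C-terminus of yeast HSF1 residues 1-493 (C-terminal TAD deleted) and expressed from the native HSF1 promoter on a CEN plasmid in hsf1-deleted S. cerevisiae PS128. Cells were selected at 37°C on -trp 5-FOA plates for 0, 2, 4, 6 and 8 days and amplicons were sequenced. Growth estimate is the slope of a robust linear fit of total-sum-normalised read counts (normalised to the first time point) over time, using at least 2 replicates. Sequences are classed functional (TAD activity) above a threshold of -0.13, set from stop-codon control sequences.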

Substance	growth estimate
ECPAGSIGLQTMCVDFRFI	< -0.25
ECRGLKSHVVSVYVRVTWIS	< -0.25
ECRSQLLVSSRSGLNAKL	< -0.25
ECSDATFISCLRRLISIHVR	< -0.25
ECTQVDWLGSVLLDATGDVG	< -0.25
ECTSLVRPADVSRFVRILAS	< -0.25
ECTTVDTVSRVIHCCKPAPR	-0.21
ECVCKCCCSEY	< -0.25
ECVV	< -0.25
ECWL	< -0.25
EDAINAGTRVFSAVQTHSRR	< -0.25
EDCKGR	< -0.25
EDDSFFLGRVIYYLPWANGR	< -0.25
EDGIIVYTARVIKLFRSDTV	-0.218
EDKART	< -0.25
EDNKSVIKWGRLGLTTIFFI	< -0.25
EDPNGRKNTLRRDLY	< -0.25
EDPRPVHGSAFKYRMHGLGP	< -0.25
EDRGKNTS	< -0.25
EDRRTR	< -0.25
EDRRTRSSYVVTVAIVPNPY	< -0.25
EDVGRAP	< -0.25
EDVVQPRGELAPS	< -0.25
EECKEDIIRPFQLYTGATYW	< -0.25

For reference, some entries already given:
Substance	growth estimate
EDDSFFLGRVIYYLPWANGR	< -0.25
EDGIIVYTARVIKLFRSDTV	-0.218
EDKART	< -0.25
EDNKSVIKWGRLGLTTIFFI	< -0.25

(cont.)

Substance	growth estimate
EEELIACVLSC	< -0.25
EEENDIPLSPCVTDTSRSLG	< -0.25
EEEYLAREVRKFLGG	< -0.25
EEIPPRNFNIVTITW	< -0.25
EEITI	< -0.25
EELNGNRPQVSRTVSGLQRQ	< -0.25
EEPGLSTLTQNTRGKLDLKQ	< -0.25
EERIDKAMLGNRLCSWPRGD	< -0.25
EETRPQSCGTMPSGKRYSGD	< -0.25
EEVGCEIYWRCDA	< -0.25
EFEVIRWVEGTGVL	< -0.25
EFGDRGNLETITFQGCVRTK	< -0.25
EFGEVMVESVLLSSCVDSRT	< -0.25
EFGLAKWNGGP	< -0.25
EFQRPVVLRMGTSRVHKSVS	< -0.25
EFRAFRELYGRCSVTLARSE	< -0.25
EFRQLAKLLTLVQSIN	< -0.25
EFRS	< -0.25
EFSLSGVGASRQLEVTAGRF	< -0.25
EFVPYGVNPGRT	< -0.25
EGCPVDRIRV	< -0.25
EGDGLRNGDDPI	< -0.25
EGDSTGQYSQKNHPRQRFDG	< -0.25
EGGSTKLLQESRFAIGSLRS	< -0.25

Substance	growth estimate
EGGYVSP	< -0.25
EGIPFEPLV	< -0.25
EGIW	< -0.25
EGLAMGGLVTTQPVSPHILQ	< -0.25
EGLIGAED	< -0.25
EGLNLPYLGQLD	< -0.25
EGLSLVFACSVRTS	< -0.25
EGMFSGP	< -0.25
EGNRVASIYLHWLYRALNRR	< -0.25
EGPELGIGASRIR	< -0.25
EGRRRVFGLAWLVASSGTRS	< -0.25
EGRVALRIRVGIQNRSRVSV	< -0.25
EGRVTHLSCDLLSESGGFSL	< -0.25
EGSSAKLRRKF	< -0.25
EGT	< -0.25
EGVASRAGGRSAFIPGTL	< -0.25
EGVRCDWGG	-0.245
EGVRLLDRRVVDARFRAYHT	< -0.25
EGYM	< -0.25
EHALYKS	< -0.25
EHCHHPLRFADD	< -0.25
EHEVFS	< -0.25
EHGHT	< -0.25
EHGVDFGNMAGSS	< -0.25

Substance	growth estimate
EHNLGSGSSCNKLERAVHAE	< -0.25
EHSGPSERCTA	-0.243
EHSHFVERARESLDLRVE	< -0.25
EHTKTVGHGLWTPLRRLRNC	< -0.25
EICCPTILDIRASFRCTRPL	< -0.25
EIGVGRDKFLGGG	< -0.25
EIIGFPRRNSRLFAKLANF	< -0.25
EIITQVSRRLWTWSYNV	< -0.25
EIKSTYAIVSSAGDDKRVSA	< -0.25
EILAKQYSGPG	< -0.25
EIQKGTA	< -0.25
EIREWSTAPWNKG	< -0.25
EIRSVQYSKCRLSLDSCRTA	< -0.25
EISLRDESLRYDSGD	< -0.25
EITC	< -0.25
EITKLFTFRAGSMLWSSLVR	< -0.25
EIVIRFLERAVWLSRPPDGG	< -0.25
EIVLKLT	< -0.25
EIVRVGESALTRDEGKLLGT	< -0.25
EKGADSEFKQNNKGTGAA	< -0.25
EKLAINGSSDPWLDSMVFTV	< -0.25
EKLPTVWRAAPGRKT	-0.198
EKNFRDLSERVARSDALLSG	< -0.25
EKNGSICAKSKRSV	< -0.25

Substance	growth estimate
EKR	< -0.25
EKRSTRAS	< -0.25
EKWGRRFLHGTLC	< -0.25
EKYVRH	< -0.25
ELALGTLQGH	< -0.25
ELCTIKVHLEN	< -0.25
ELEYMGPFDRFDLTTRYGGV	-0.2
ELFQRLRLEIAEAIGGR	< -0.25
ELGAPTLFMVCVRRVARCFD	< -0.25
ELGDAIKSVYRAADPVYLGR	< -0.25
ELGHPKVGHINVYRTKSATE	< -0.25
ELGRGAWPGSRRGRFRYVG	< -0.25
ELGSKRLRTISLVIFV	< -0.25
ELIFDAMRSHLCVERPSSVD	< -0.25
ELKCKGIALARSRYVAPDVH	< -0.25
ELLDGPPTVHISSRMHRY	< -0.25
ELLTVRSG	< -0.25
ELNKRSPVIPLS	< -0.25
ELP	< -0.25
ELPRIKAS	< -0.25
ELPTGGRA	< -0.25
ELQCQYTGSHDGRVDKAVVG	< -0.25
ELRLSSINRLKTLRLH	< -0.25
ELRRTACTNGDLT	< -0.25

Some of the entries so far, as a markdown table.

| Substance | growth estimate |
| --- | --- |
| ELLTVRSG | < -0.25 |
| ELNKRSPVIPLS | < -0.25 |

(listing goes on)

Substance	growth estimate
ELRVFGSLRQRSGNSGSRSD	< -0.25
ELSDKDRT	< -0.25
ELSIAMRWGGYGCRAHGMYH	-0.246
ELSQNSIRGL	< -0.25
ELTRYANKIYLTVASKLIPG	< -0.25
ELTWMVWPTTLYVGVWSPAH	< -0.25
ELVGGGWLRRASSKLAGSGY	< -0.25
ELVHFPRLITA	< -0.25
ELVQVNQSRLRRGPTRWAPP	< -0.25
ELVRYVWRPLGAVVNGLLIR	< -0.25
ELWDTMESQSSRAHGPRSNL	< -0.25
ELWFPWRKIIVRWVITHNSR	< -0.25
EMCVSGNMRHQPIANIAGTV	< -0.25
EMGEPRLSVNRMSL	< -0.25
EMGFRTAGAMRTQSTQRNPD	< -0.25
EMQGVGQARIRR	< -0.25
EMQISVLPGL	< -0.25
EMVRLTLVQPDRRLSLRFRL	< -0.25
ENCKDDGK	< -0.25
ENDVSYFVATSYRLSMMA	-0.199
ENILRFNP	< -0.25
ENPAGSCVYDREWLLFVDYC	< -0.25
ENRACRHPTPCHALSIINVP	< -0.25
ENRIGEAATSRNFFMRLQAI	< -0.25
